# Data from patent US6414113B1 (Biomolecular Engineering Research Institute, priority 1998, dated 2002).
# Experiment: peptide synthesis
# Conditions: conjugation step, reverse HPLC
substance,measurement,value
PEPTIDE1{[LCBiotin].H.S.Q.I.S.G.K.Y.Q.R.Y.L.K.D.A}$$$$V2.0,final HPLC purity,more than 95%

# Some peptides are written in HELM: one residue between dots, names in brackets for other building blocks, links after the first $.
